Experimental data from publication PMC12373910.

Biological target: T1, GST-GalU (UniProt P0AEP3)
T1 sequence: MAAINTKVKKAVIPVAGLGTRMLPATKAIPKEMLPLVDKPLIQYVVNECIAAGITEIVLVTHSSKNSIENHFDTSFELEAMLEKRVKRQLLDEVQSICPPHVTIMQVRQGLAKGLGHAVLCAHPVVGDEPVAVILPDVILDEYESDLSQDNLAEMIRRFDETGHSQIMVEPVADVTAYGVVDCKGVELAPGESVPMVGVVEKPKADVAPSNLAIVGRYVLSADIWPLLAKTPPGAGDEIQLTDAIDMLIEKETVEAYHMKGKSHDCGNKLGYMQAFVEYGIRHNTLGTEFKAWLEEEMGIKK
Assay: co-IP; GST-GalU and Gnarl3-3xFLAG co-expressed in E. coli TOP10; whole cell lysate (50 mM Tris pH 7.4, 150 mM NaCl, 10 mM EDTA, 0.5% NP40, 5 mM DTT) incubated with magnetic glutathione agarose beads 1 h at room temperature; eluted with 50 mM reduced glutathione; Western blot with anti-GST and anti-FLAG

binding: binds
Substance: Gnarl3-3xFLAG

No constants are given. Whether binding was seen depends on the method and setting. In cells and extracts the contact can be indirect. Binding calls can cover weak binding; strength is not graded here. Sequences can lack the tags named with a protein.
